# At least one peptide structure holds a part that was inferred or is arguable (an end, a ring closure or a residue). Where no end group is shown, it is not given here.
# Legend:
# [1] = Calcein emission from bacteria-like liposome; conditions: PE:PG 7:3, peptide 0.03~1 μM, 25 minutes
# C. rugosa = test: MIC in fungi; type: cell-based; conditions: Sol. 2 (phosphate buffered saline)
# [2] = test system: antibiotic-tolerant strains; test: MIC comparison in antibiotic-tolerant strains; type: cell-based
# S. aureus = test: Effect on inner membrane (SYTOX green); type: cell-based, Staphylococcus aureus; conditions: 12.5 μM peptide, measured for one hour
# E. coli = test: Effect on inner membrane (SYTOX green); type: cell-based, Escherichia coli; conditions: 12.5 μM peptide, measured for one hour
# [3] = Peptide aggregation by spectrofluorometer (tryptophan fluorescence); type: physicochemical; conditions: in water, 1~18 μM peptide
# [4] = Calcein emission from erythrocyte-like liposome; conditions: PC:CH 10:1, peptide 0.03~1 μM, 25 minutes
substance,measurement,setting,value
KWKWKWKW-NH2 [SEQ. ID. NO: 3],fluorescence (calcein) emission from liposome,[1],emitted fluorescence a lot
same,MIC,C. rugosa,8 µM
same,times higher antibacterial activity than SEQ. ID. NO: 1,[2],32 times
same,times higher antibacterial activity than SEQ. ID. NO: 2,[2],8 times
same,times higher antibacterial activity than SEQ. ID. NO: 4,[2],8 times
same,time point of highest fluorescence emission rate (SYTOX green),S. aureus,30 min
same,time point of highest fluorescence emission rate (SYTOX green),E. coli,56 min
same,maximum fluorescent light emission wavelength over the concentrations (aggregation),[3],did not change
same,fluorescence (calcein) emission compared with SEQ. ID. NO: 4 at the same concentration,[4],at most half the level

# — patent publication US10301354B2, “Antibacterial and fungicidal peptide in which lysine and tryptophan residues are repeated, and use thereof” (priority 2011, dated 2019)
